Three molecules from paper PMC7696408 can be followed below.

No constants are given. Whether binding was seen depends on the method and setting. Binding seen in cells or lysates may run through a third protein. Some entries that bind do so weakly or less than the wild type. Sequences can lack the tags named with a protein.

Assay [1] addresses FlagBirA*-KRAS4B (human) (UniProt P01116). Nature of the assay: proximity ligation; Duolink PLA in methanol-fixed FlagBirA*-RAS T-REx 293 cells transfected with 3xHA-tagged candidate, tetracycline-induced; mouse anti-Flag and rabbit anti-HA; dots per cell, 100 cells; radius ~30 nm.
In assay [2] the target is FlagBirA*-HRAS (human) (UniProt P01112). Described as above.

B1: HA-PGD (protein, UniProt P52209 1-483)
chain: MAQADIALIGLAVMGQNLILNMNDHGFVVCAFNRTVSKVDDFLANEAKGTKVVGAQSLKEMVSKLKKPRRIILLVKAGQAVDDFIEKLVPLLDTGDIIIDGGNSEYRDTTRRCRDLKAKGILFVGSGVSGGEEGARYGPSLMPGGNKEAWPHIKTIFQGIAAKVGTGEPCCDWVGDEGAGHFVKMVHNGIEYGDMQLICEAYHLMKDVLGMAQDEMAQAFEDWNKTELDSFLIEITANILKFQDTDGKHLLPKIRDSAGQKGTGKWTAISALEYGVPVTLIGEAVFARCLSSLKDERIQASKKLKGPQKFQFDGDKKSFLEDIRKALYASKIISYAQGFMLLRQAATEFGWTLNYGGIALMWRGGCIIRSVFLGKIKDAFDRNPELQNLLLDDFFKSAVENCQDSWRRAVSTGVQAGIPMPCFTTALSFYDGYRHEMLPASLIQAQRDYFGAHTYELLAKPGQFIHTNWTGHGGTVSSSSYNA
Turning to B1, the binding result in assay [1] is recorded as “binds”.

B2: HA-S100A11 (protein, UniProt P31949 1-105)
chain: MAKISSPTETERCIESLIAVFQKYAGKDGYNYTLSKTEFLSFMNTELAAFTKNQKDPGVLDRMMKKLDTNSDGQLDFSEFLNLIGGLAMACHDSFLKAVPSQKRT
With B2, the binding result in assay [2] is “binds”.

B3: HA-RAP2A (protein, UniProt P10114 1-183)
chain: MREYKVVVLGSGGVGKSALTVQFVTGTFIEKYDPTIEDFYRKEIEVDSSPSVLEILDTAGTEQFASMRDLYIKNGQGFILVYSLVNQQSFQDIKPMRDQIIRVKRYEKVPVILVGNKVDLESEREVSSSEGRALAEEWGCPFMETSAKSKTMVDELFAEIVRQMNYAAQPDKDDPCCSACNIQ
For the molecule B3, the binding result in assay [2] is on record as “binds”.
